Measured values taken from patent US20100322941A1 (published 2010).
These are yes or no findings as the source states them, for the method shown. Some binding calls cover weakened binding; strength is not graded here.

Legend:
[1] = biological target: NusA-cynomolgus IP-10 fusion protein (cynomolgus); assay: capture ELISA: NI-0801 coated, concentration range of NusA fusion protein, anti-NusA antibody
[2] = biological target: NusA-cynomolgus IP-10 fusion protein (cynomolgus); assay: ELISA (FIG. 7), NusA fusion proteins

B1: NI-0801 (IgG1-formatted) (antibody, V domains shown)
VH: QVQLVESGGGVVQPGRSLRLSCAASGFTFSNSGIHWVRQAPGKGLEWVAVISYDGSNKYYADSVKGRFTISRDNSKNTLYLQMNSLRAEDTAVYYCARLRDNAEYTDYWGQGTLVTVSS
VL: NFMLTQPHSVSESPGKTVTISCTGSGGSIASNYVQWYQQRPGSSPTTVIYEDNQRPSGVPDRFSGSIDSSSNSASLTISGLKTEDEADYYCQSYDPLPVWVFGGGTKLTVLG
For B1, the binding [1] was “binds” and the binding [2] was “binds”.
